Measured values as given in article PMC12174314.
No constants are given. Whether binding was seen depends on the method and setting. In cells and extracts the contact can be indirect. Some entries that bind do so weakly or less than the wild type.

The chains behind the UniProt entries cited, without tags or fusion partners. Residues count along the entry.
UniProt Q07954, residues 20-4544: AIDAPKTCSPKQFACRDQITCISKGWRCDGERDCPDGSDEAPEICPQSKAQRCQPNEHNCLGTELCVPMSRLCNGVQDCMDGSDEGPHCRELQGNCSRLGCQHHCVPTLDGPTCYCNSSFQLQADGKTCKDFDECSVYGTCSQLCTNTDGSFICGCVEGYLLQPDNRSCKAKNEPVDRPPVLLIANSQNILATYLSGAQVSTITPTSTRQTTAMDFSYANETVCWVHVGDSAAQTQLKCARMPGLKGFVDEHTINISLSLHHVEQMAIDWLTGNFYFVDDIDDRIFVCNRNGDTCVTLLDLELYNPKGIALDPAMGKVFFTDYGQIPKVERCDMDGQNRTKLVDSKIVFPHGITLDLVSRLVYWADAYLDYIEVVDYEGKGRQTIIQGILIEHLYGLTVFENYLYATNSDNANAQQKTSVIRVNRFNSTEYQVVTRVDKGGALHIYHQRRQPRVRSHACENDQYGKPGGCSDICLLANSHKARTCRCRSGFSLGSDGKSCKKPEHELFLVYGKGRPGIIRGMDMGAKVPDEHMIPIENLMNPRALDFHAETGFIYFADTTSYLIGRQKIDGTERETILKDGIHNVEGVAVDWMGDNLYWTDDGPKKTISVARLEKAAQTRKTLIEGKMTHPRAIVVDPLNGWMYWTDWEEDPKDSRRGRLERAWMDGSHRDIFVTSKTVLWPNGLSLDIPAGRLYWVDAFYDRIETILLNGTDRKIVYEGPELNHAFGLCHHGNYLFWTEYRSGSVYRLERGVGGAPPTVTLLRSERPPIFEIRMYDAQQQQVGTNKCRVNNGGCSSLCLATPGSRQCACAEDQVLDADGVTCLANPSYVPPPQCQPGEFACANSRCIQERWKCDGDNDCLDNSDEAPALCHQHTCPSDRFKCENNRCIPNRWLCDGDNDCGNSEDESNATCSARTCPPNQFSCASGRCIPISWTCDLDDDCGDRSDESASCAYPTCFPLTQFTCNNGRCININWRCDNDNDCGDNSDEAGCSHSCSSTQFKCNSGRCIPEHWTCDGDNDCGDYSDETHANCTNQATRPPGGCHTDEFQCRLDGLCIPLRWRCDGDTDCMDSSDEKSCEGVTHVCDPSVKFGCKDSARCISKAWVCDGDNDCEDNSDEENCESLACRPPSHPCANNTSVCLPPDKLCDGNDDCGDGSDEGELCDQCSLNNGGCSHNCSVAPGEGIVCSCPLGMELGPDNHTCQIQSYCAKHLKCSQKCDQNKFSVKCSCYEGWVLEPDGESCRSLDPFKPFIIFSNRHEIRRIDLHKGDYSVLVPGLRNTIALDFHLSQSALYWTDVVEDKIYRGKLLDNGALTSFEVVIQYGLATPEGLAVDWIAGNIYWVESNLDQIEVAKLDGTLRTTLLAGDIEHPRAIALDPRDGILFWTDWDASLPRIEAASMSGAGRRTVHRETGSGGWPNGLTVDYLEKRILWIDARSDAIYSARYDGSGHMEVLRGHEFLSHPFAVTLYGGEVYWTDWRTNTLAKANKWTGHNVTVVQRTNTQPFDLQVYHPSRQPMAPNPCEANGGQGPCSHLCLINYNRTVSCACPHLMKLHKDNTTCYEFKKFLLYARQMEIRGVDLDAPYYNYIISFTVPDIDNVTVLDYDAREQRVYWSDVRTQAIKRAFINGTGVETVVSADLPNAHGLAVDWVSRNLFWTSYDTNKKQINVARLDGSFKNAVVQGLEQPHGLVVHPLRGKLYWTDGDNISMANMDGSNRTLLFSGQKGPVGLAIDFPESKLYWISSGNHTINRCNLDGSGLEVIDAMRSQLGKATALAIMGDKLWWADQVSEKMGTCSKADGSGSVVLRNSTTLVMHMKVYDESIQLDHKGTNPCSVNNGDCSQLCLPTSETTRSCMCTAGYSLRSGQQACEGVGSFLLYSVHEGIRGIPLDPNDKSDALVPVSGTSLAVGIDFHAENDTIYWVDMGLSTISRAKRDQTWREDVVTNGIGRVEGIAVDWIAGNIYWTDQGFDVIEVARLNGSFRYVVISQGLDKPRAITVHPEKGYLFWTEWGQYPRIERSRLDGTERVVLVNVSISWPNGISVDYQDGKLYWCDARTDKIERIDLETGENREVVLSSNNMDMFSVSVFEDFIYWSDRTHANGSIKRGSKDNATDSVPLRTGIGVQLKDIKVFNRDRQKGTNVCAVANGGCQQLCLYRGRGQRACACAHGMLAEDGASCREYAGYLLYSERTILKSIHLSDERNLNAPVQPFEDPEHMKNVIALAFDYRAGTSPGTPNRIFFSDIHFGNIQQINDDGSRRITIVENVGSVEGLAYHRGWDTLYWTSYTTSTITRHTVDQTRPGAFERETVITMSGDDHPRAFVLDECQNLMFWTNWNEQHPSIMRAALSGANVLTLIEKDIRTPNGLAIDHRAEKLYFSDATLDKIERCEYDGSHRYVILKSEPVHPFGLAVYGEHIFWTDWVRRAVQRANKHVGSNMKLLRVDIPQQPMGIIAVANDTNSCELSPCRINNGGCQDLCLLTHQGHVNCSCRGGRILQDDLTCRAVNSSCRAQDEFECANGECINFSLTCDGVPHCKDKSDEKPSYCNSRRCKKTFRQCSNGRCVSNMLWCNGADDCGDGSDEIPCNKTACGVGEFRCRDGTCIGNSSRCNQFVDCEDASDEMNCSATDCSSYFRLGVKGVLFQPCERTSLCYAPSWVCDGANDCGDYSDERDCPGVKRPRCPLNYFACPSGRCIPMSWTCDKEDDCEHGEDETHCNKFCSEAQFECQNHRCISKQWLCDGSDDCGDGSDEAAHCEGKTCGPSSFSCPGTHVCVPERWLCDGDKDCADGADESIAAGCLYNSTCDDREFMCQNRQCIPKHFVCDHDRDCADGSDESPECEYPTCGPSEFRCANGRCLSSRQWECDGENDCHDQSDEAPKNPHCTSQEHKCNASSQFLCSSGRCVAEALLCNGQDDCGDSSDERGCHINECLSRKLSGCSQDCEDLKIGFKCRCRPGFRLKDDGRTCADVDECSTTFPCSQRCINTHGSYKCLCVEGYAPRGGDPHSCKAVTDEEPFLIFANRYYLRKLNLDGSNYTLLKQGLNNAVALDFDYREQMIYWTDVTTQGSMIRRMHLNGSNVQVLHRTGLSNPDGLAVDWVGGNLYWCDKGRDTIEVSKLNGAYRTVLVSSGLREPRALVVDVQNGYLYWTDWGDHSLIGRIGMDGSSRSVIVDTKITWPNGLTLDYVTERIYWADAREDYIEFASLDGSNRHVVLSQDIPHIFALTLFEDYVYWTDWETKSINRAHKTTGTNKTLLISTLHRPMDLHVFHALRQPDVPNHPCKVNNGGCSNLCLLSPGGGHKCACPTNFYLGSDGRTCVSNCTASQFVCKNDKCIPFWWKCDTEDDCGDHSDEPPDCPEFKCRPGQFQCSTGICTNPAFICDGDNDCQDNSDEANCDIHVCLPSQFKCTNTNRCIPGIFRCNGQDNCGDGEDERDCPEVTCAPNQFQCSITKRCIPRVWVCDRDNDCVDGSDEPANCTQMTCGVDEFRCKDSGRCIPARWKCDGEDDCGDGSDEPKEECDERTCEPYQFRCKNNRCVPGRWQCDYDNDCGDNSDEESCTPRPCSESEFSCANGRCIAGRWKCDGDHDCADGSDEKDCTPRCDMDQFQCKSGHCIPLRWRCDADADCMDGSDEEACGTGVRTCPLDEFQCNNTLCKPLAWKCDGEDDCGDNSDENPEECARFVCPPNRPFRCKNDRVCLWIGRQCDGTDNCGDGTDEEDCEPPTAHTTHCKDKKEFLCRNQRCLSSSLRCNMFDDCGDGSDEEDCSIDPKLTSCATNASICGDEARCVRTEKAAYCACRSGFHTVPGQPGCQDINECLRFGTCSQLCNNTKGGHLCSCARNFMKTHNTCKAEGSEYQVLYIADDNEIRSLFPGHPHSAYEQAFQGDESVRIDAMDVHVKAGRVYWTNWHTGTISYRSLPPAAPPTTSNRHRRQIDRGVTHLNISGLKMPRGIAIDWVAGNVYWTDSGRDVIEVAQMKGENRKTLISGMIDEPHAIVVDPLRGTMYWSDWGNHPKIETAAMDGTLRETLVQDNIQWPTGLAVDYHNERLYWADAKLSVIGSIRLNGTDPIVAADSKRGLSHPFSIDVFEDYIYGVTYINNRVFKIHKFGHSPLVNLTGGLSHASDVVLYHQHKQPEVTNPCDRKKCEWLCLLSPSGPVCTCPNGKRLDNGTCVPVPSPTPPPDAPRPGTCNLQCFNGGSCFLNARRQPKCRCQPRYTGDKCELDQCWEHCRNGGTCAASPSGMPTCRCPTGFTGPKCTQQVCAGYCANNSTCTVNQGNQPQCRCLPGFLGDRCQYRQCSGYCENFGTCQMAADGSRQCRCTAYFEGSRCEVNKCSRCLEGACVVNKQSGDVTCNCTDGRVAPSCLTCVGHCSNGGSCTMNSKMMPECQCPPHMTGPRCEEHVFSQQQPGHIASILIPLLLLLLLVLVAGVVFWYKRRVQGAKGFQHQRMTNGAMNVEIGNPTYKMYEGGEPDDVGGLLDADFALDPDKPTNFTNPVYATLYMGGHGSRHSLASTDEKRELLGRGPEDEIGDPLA

Target: low-density lipoprotein receptor-related protein 1 (LRP1), surface receptor on macrophages (human (endogenous in THP-1)) (UniProt Q07954)
Experiment: co-IP; cell protein extract of THP-1 cells co-cultured with U87MG, U251MG or T98MG (THP1^U87MG, THP1^U251MG, THP1^T98MG); IP antibody overnight at 4 °C, protein A/G beads, IgG of the same species as negative control, WB detection; which protein was precipitated is not told

B1: midkine (MDK) secreted by GBM cells (ligand, UniProt P21741 21-143)
chain: VAKKKDKVKKGGPGSECAEWAWGPCTPSSKDCGVGFREGTCGAQTQRIRCRVPCNWKKEFGADCKYKFENWGACDGGTGTKVRQGTLKKARYNAQCQETIRVTKPCTPKTKAKAKAKKGKGKD
binding: binds
